Experiment [1] deals with TAP-tagged BACE1 (Homo sapiens (Human)). As to the kind of experiment: TAP purification of tagged bait from SKNBE2 cells, LC-MS/MS.
Experiment [2] shares this target. As to the kind of experiment: TAP purification of tagged bait, LC-MS/MS; novel interactor.
The target is the same in experiment [3]. As to the kind of experiment: TAP purification of tagged bait, LC-MS/MS; listed only under all interactors.

These are yes or no findings as the source states them, for the method shown. Binding seen in cells or lysates may run through a third protein. A result given as binding can be weak or reduced; the word gives no strength.

B1: Delta-6 fatty acid desaturase (FADS2) (enzyme)
chain: MGKGGNQGEGAAEREVSVPTFSWEEIQKHNLRTDRWLVIDRKVYNITKWSIQHPGGQRVIGHYAGEDATDAFRAFHPDLEFVGKFLKPLLIGELAPEEPSQDHGKNSKITEDFRALRKTAEDMNLFKTNHVFFLLLLAHIIALESIAWFTVFYFGNGWIPTLITAFVLATSQAQAGWLQHDYGHLSVYRKPKWNHLVHKFVIGHLKGASANWWNHRHFQHHAKPNIFHKDPDVNMLHVFVLGEWQPIEYGKKKLKYLPYNHQHEYFFLIGPPLLIPMYFQYQIIMTMIVHKNWVDLAWAVSYYIRFFITYIPFYGILGALLFLNFIRFLESHWFVWVTQMNHIVMEIDQEAYRDWFSSQLTATCNVEQSFFNDWFSGHLNFQIEHHLFPTMPRHNLHKIAPLVKSLCAKHGIEYQEKPLLRALLDIIRSLKKSGKLWLDAYLHK
For B1, the binding result in experiment [1] and in experiment [2] was “binds” throughout.

B2: Neurotrypsin (SEQ ID No:19) (enzyme)
chain: FDSVLNDSLHHSHRHSPPAGPHYPYYLPTQQRPPRTRPPPPLPRFPRPPRALPAQRPHALQAGHTPRPHPWGCPAGEPWVSVTDFGAPCLRWAEVPPFLERSPPASWAQLRGQRHNFCRSPDGAGRPWCFYGDARGKVDWGYCDCRHGSVRLRGGKNEFEGTVEVYASGVWGTVCSSHWDDSDASVICHQLQLGGKGIAKQTPFSGLGLIPIYWSNVRCRGDEENILLCEKDIWQGGVCPQKMAAAVTCSFSHGPTFPIIRLAGGSSVHEGRVELYHAGQWGTVCDDQWDDADAEVICRQLGLSGIAKAWHQAYFGEGSGPVMLDEVRCTGNELSIEQCPKSSWGEHNCGHKEDAGVSCTPLTDGVIRLAGGKGSHEGRLEVYYRGQWGTVCDDGWTELNTYVVCRQLGFKYGKQASANHFEESTGPIWLDDVSCSGKETRFLQCSRRQWGRHDCSHREDVSIACYPGGEGHRLSLGFPVRLMDGENKKEGRVEVFINGQWGTICDDGWTDKDAAVICRQLGYKGPARARTMAYFGEGKGPIHVDNVKCTGNERSLADCIKQDIGRHNCRHSEDAGVICDYFGKKASGNSNKESLSSVCGLRLLHRRQKRIIGGKNSLRGGWPWQVSLRLKSSHGDGRLLCGATLLSSCWVLTAAHCFKRYGNSTRSYAVRVGDYHTLVPEEFEEEIGVQQIVIHREYRPDRSDYDIALVRLQGPEEQCARFSSHVLPACLPLWRERPQKTASNCYITGWGDTGRAYSRTLQQAAIPLLPKRFCEERYKGRFTGRMLCAGNLHEHKRVDSCQGDSGGPLMCERPGESWVVYGVTSWGYGCGVKDSPGVYTKVSAFVPWIKSVTKL
With B2, in experiment [2], the binding result is “binds”.

B3: LAPTM4B (protein)
chain: MVNYAWAGRSQRKLWWRSVAVLTCKSVVRPGYRGGLQARRSTLLKTCARARATAPGAMKMVAPWTRFYSNSCCLCCHVRTGTILLGVWYLIINAVVLLILLSALADPDQYNFSSSELGGDFEFMDDANMCIAIAISLLMILICAMATYGAYKQRAAWIIPFFCYQIFDFALNMLVAITVLIYPNSIQEYIRQLPPNFPYRDDVMSVNPTCLVLIILLFISIILTFKGYLISCVWNCYRYINGRNSSDVLVYVTSNDTTVLLPPYDDATVNGAAKEPPPPYVSA
For the molecule B3, the binding entry in experiment [2] is listed as “binds”.

B4: RetSDR2 (enzyme)
chain: ESFVKLFIPKRRKSVTGEIVLITGAGHGIGRLTAYEFAKLKSKLVLWDINKHGLEETAAKCKGLGAKVHTFVVDCSNREDIYSSAKKVKAEIGDVSILVNNAGVVYTSDLFATQDPQIEKTFEVNVLAHFWTTKAFLPAMTKNNHGHIVTVASAAGHVSVPFLLAYCSSKFAAVGFHKTLTDELAALQITGVKTTCLCPNFVNTGFIKNPSTSLGPTLEPEEVVNRLMHGILTEQKMIFIPSSIAFLTTLERILPERFLAVLKRKISVKFDAVIGYKMKAQ
Regarding B4, in experiment [2], the binding result was “binds”.

B5: PTK7 (SEQ ID No:44) (receptor)
chain: AIVFIKQPSSQDALQGRRALLRCEVEAPGPVHVYWLLDGAPVQDTERRFAQGSSLSFAAVDRLQDSGTFQCVARDDVTGEEARSANASFNIKWIEAGPVVLKHPASEAEIQPQTQVTLRCHIDGHPRPTYQWFRDGTPLSDGQSNHTVSSKERNLTLRPAGPEHSGLYSCCAHSAFGQACSSQNFTLSIADESFARVVLAPQDVVVARYEEAMFHCQFSAQPPPSLQWLFEDETPITNRSRPPHLRRATVFANGSLLLTQVRPRNAGIYRCIGQGQRGPPIILEATLHLAEIEDMPLFEPRVFTAGSEERVTCLPPKGLPEPSVWWEHAGVRLPTHGRVYQKGHELVLANIAESDAGVYTCHAANLAGQRRQDVNITVATVPSWLKKPQDSQLEEGKPGYLDCLTQATPKPTVVWYRNQMLISEDSRFEVFKNGTLRINSVEVYDGTWYRCMSSTPAGSIEAQARVQVLEKLKFTPPPQPQQCMEFDKEATVPCSATGREKPTIKWERADGSSLPEWVTDNAGTLHFARVTRDDAGNYTCIASNGPQGQIRAHVQLTVAVFITFKVEPERTTVYQGHTALLQCEAQGDPKPLIQWKGKDRILDPTKLGPRMHIFQNGSLVIHDVAPEDSGRYTCIAGNSCNIKHTEAPLYVVDKPVPEESEGPGSPPPYKMIQTIGLSVGAAVAYIIAVLGLMFYCKKRCKAKRLQKQPEGEEPEMECLNGGPLQNGQPSAEIQEEVALTSLGSGPAATNKRHSTSDKMHFPRSSLQPITTLGKSEFGEVFLAKAQGLEEGVAETLVLVKSLQSKDEQQQLDFRRELEMFGKLNHANVVRLLGLCREAEPHYMVLEYVDLGDLKQFLRISKSKDEKLKSQPLSTKQKVALCTQVALGMEHLSNNRFVHKDLAARNCLVSAQRQVKVSALGLSKDVYNSEYYHFRQAWVPLRWMSPEAILEGDFSTKSDVWAFGVLMWEVFTHGEMPHGGQADDEVLADLQAGKARLPQPEGCPSKLYRLMQRCWALSPKDRPSFSEIASALGDSTVDSKP
In the case of B5, the binding result in experiment [2] was “binds”.

B6: GPR49 (receptor)
chain: GSSPRSGVLLRGCPTHCHCEPDGRMLLRVDCSDLGLSELPSNLSVFTSYLDLSMNNISQLLPNPLPSLRFLEELRLAGNALTYIPKGAFTGLYSLKVLMLQNNQLRHVPTEALQNLRSLQSLRLDANHISYVPPSCFSGLHSLRHLWLDDNALTEIPVQAFRSLSALQAMTLALNKIHHIPDYAFGNLSSLVVLHLHNNRIHSLGKKCFDGLHSLETLDLNYNNLDEFPTAIRTLSNLKELGFHSNNIRSIPEKAFVGNPSLITIHFYDNPIQFVGRSAFQHLPELRTLTLNGASQITEFPDLTGTANLESLTLTGAQISSLPQTVCNQLPNLQVLDLSYNLLEDLPSFSVCQKLQKIDLRHNEIYEIKVDTFQQLLSLRSLNLAWNKIAIIHPNAFSTLPSLIKLDLSSNLLSSFPITGLHGLTHLKLTGNHALQSLISSENFPELKVIEMPYAYQCCAFGVCENAYKISNQWNKGDNSSMDDLHKKDAGMFQAQDERDLEDFLLDFEEDLKALHSVQCSPSPGPFKPCEHLLDGWLIRIGVWTIAVLALTCNALVTSTVFRSPLYISPIKLLIGVIAAVNMLTGVSSAVLAGVDAFTFGSFARHGAWWENGVGCHVIGFLSIFASESSVFLLTLAALERGFSVKYSAKFETKAPFSSLKVIILLCALLALTMAAVPLLGGSKYGASPLCLPLPFGEPSTMGYMVALILLNSLCFLMMTIAYTKLYCNLDKGDLENIWDCSMVKHIALLLFTNCILNCPVAFLSFSSLINLTFISPEVIKFILLVVVPLPACLNPLLYILFNPHFKEDLVSLRKQTYVWTRSKHPSLMSINSDDVEKQSCDSTQALVTFTSSSITYDLPPSSVPSPAYPVTESCHLSSVAFVPCL
In the case of B6, the binding entry in experiment [2] is given as “binds”.

B7: ITM2C (protein)
chain: MVKISFQPAVAGIKGDKADKASASAPAPASATEILLTPAREEQPPQHRSKRGGSVGGVCYLSMGMVVLLMGLVFASVYIYRYFFLAQLARDNFFRCGVLYEDSLSSQVRTQMELEEDVKIYLDENYERINVPVPQFGGGDPADIIHDFQRGLTAYHDISLDKCYVIELNTTIVLPPRNFWELLMNVKRGTYLPQTYIIQEEMVVTEHVSDKEALGSFIYHLCNGKDTYRLRRRATRRRINKRGAKNCNAIRHFENTFVVETLICGVV
For the molecule B7, the binding result in experiment [2] is recorded as “binds”.

B8: TMP21 (protein)
chain: ISFHLPINSRKCLREEIHKDLLVTGAYEISDQSGGAGGLRSHLKITDSAGHILYSKEDATKGKFAFTTEDYDMFEVCFESKGTGRIPDQLVILDMKHGVEAKNYEEIAKVEKLKPLEVELRRLEDLSESIVNDFAYMKKREEEMRDTNESTNTRVLYFSIFSMFCLIGLATWQVFYLRRFFKAKKLIE
Consider B8, for which, in experiment [3], the binding entry is “binds”.
